Measured values taken from ChEMBL document CHEMBL4316593 (Eur J Med Chem, 2019).
Further values from the same series stand in other lists.

What was measured:
Format in all cases: cell-based
Conditions in all cases: U-87MG ATCC
[1] = Inhibition of RTK/PI3K/AKT/mTOR signaling in human U87 cells assessed as down regulation of KLHL12 gene expression at cytotoxic IC50 measured after 48 hrs relative to control
[2] = Inhibition of RTK/PI3K/AKT/mTOR signaling in human U87 cells assessed as down regulation of AP5B1 gene expression at cytotoxic IC50 measured after 48 hrs relative to control
[3] = Inhibition of RTK/PI3K/AKT/mTOR signaling in human U87 cells assessed as down regulation of B4GALT5 gene expression at cytotoxic IC50 measured after 48 hrs relative to control
[4] = Inhibition of RTK/PI3K/AKT/mTOR signaling in human U87 cells assessed as down regulation of GLE1 gene expression at cytotoxic IC50 measured after 48 hrs relative to control
[5] = Inhibition of RTK/PI3K/AKT/mTOR signaling in human U87 cells assessed as up regulation of DACT1 gene expression at cytotoxic IC50 measured after 48 hrs relative to control
[6] = Inhibition of RTK/PI3K/AKT/mTOR signaling in human U87 cells assessed as up regulation of ETV4 gene expression at cytotoxic IC50 measured after 48 hrs relative to control
[7] = Inhibition of RTK/PI3K/AKT/mTOR signaling in human U87 cells assessed as up regulation of TMEM45A gene expression at cytotoxic IC50 measured after 48 hrs relative to control
[8] = Inhibition of RTK/PI3K/AKT/mTOR signaling in human U87 cells assessed as down regulation of ZNF274 gene expression at cytotoxic IC50 measured after 48 hrs relative to control
[9] = Inhibition of RTK/PI3K/AKT/mTOR signaling in human U87 cells assessed as down regulation of ITSN2 gene expression at cytotoxic IC50 measured after 48 hrs relative to control
[10] = Inhibition of RTK/PI3K/AKT/mTOR signaling in human U87 cells assessed as down regulation of MTMR14 gene expression at cytotoxic IC50 measured after 48 hrs relative to control
[11] = Inhibition of RTK/PI3K/AKT/mTOR signaling in human U87 cells assessed as up regulation of FERM domain containing 5 gene expression at cytotoxic IC50 measured after 48 hrs relative to control
[12] = Inhibition of RTK/PI3K/AKT/mTOR signaling in human U87 cells assessed as up regulation of inositol polyphosphate-5-phosphatase J gene expression at cytotoxic IC50 measured after 48 hrs relative to control
[13] = Inhibition of RTK/PI3K/AKT/mTOR signaling in human U87 cells assessed as down regulation of MAML1 gene expression at cytotoxic IC50 measured after 48 hrs relative to control
[14] = Inhibition of RTK/PI3K/AKT/mTOR signaling in human U87 cells assessed as down regulation of ATAD3A gene expression at cytotoxic IC50 measured after 48 hrs relative to control
[15] = Inhibition of RTK/PI3K/AKT/mTOR signaling in human U87 cells assessed as up regulation of homeobox B9 gene expression at cytotoxic IC50 measured after 48 hrs relative to control
[16] = Inhibition of RTK/PI3K/AKT/mTOR signaling in human U87 cells assessed as up regulation of THO complex 2 gene expression at cytotoxic IC50 measured after 48 hrs relative to control
[17] = Inhibition of RTK/PI3K/AKT/mTOR signaling in human U87 cells assessed as down regulation of PSMD4 gene expression at cytotoxic IC50 measured after 48 hrs relative to control
[18] = Inhibition of RTK/PI3K/AKT/mTOR signaling in human U87 cells assessed as down regulation of CRY2 gene expression at cytotoxic IC50 measured after 48 hrs relative to control
[19] = Inhibition of RTK/PI3K/AKT/mTOR signaling in human U87 cells assessed as up regulation of MEGF6 gene expression at cytotoxic IC50 measured after 48 hrs relative to control
[20] = Inhibition of RTK/PI3K/AKT/mTOR signaling in human U87 cells assessed as down regulation of PSMD14 gene expression at cytotoxic IC50 measured after 48 hrs relative to control
[21] = Inhibition of RTK/PI3K/AKT/mTOR signaling in human U87 cells assessed as down regulation of CD99L2 gene expression at cytotoxic IC50 measured after 48 hrs relative to control
[22] = Inhibition of RTK/PI3K/AKT/mTOR signaling in human U87 cells assessed as up regulation of reticulon 3 gene expression at cytotoxic IC50 measured after 48 hrs relative to control
[23] = Inhibition of RTK/PI3K/AKT/mTOR signaling in human U87 cells assessed as down regulation of TPPP gene expression at cytotoxic IC50 measured after 48 hrs relative to control
[24] = Inhibition of RTK/PI3K/AKT/mTOR signaling in human U87 cells assessed as down regulation of KATNA1 gene expression at cytotoxic IC50 measured after 48 hrs relative to control
[25] = Inhibition of RTK/PI3K/AKT/mTOR signaling in human U87 cells assessed as down regulation of PSMD13 gene expression at cytotoxic IC50 measured after 48 hrs relative to control
[26] = Inhibition of RTK/PI3K/AKT/mTOR signaling in human U87 cells assessed as up regulation of ADAMTS14 gene expression at cytotoxic IC50 measured after 48 hrs relative to control
[27] = Inhibition of RTK/PI3K/AKT/mTOR signaling in human U87 cells assessed as down regulation of FOSL1 gene expression at cytotoxic IC50 measured after 48 hrs relative to control
[28] = Inhibition of RTK/PI3K/AKT/mTOR signaling in human U87 cells assessed as up regulation of keratin 8 gene expression at cytotoxic IC50 measured after 48 hrs relative to control
[29] = Inhibition of RTK/PI3K/AKT/mTOR signaling in human U87 cells assessed as up regulation of brain derived neurotrophic factor gene expression at cytotoxic IC50 measured after 48 hrs relative to control
[30] = Inhibition of RTK/PI3K/AKT/mTOR signaling in human U87 cells assessed as up regulation of microtubule associated scaffold protein 1 gene expression at cytotoxic IC50 measured after 48 hrs relative to control
[31] = Inhibition of RTK/PI3K/AKT/mTOR signaling in human U87 cells assessed as down regulation of KDM5C gene expression at cytotoxic IC50 measured after 48 hrs relative to control
[32] = Inhibition of RTK/PI3K/AKT/mTOR signaling in human U87 cells assessed as down regulation of SRXN1 gene expression at cytotoxic IC50 measured after 48 hrs relative to control

Compound: CC(=O)C(=NNc1ccccc1C#N)C(C)=O
- log2FC [1]: -0.483
- log2FC [2]: -1.5
- log2FC [3]: -0.574
- log2FC [4]: -0.861
- log2FC [5]: 1.91
- log2FC [6]: 0.609
- log2FC [7]: 1.91
- log2FC [8]: -1.26
- log2FC [9]: -0.721
- log2FC [10]: -0.756
- log2FC [11]: 0.759
- log2FC [12]: 1
- log2FC [13]: -0.482
- log2FC [14]: -0.698
- log2FC [15]: 1.19
- log2FC [16]: 0.755
- log2FC [17]: -0.697
- log2FC [18]: -1.3
- log2FC [19]: 2.91
- log2FC [20]: -0.709
- log2FC [21]: -1.45
- log2FC [22]: 0.827
- log2FC [23]: -1.07
- log2FC [24]: -0.869
- log2FC [25]: -0.432
- log2FC [26]: 2
- log2FC [27]: -1.27
- log2FC [28]: 0.958
- log2FC [29]: 1.09
- log2FC [30]: 1.4
- log2FC [31]: -0.584
- log2FC [32]: -2.92
